Measured values taken from PubChem BioAssay AID485314 (National Center for Advancing Translational Sciences (NCATS), 2010).
The whole screen tested about 340,000 compounds, of which about 4,500 (1.3%) were called active. Inconclusive means that the source gave no clear call. Such entries were picked first, then a sample of the others. The call rests on the fitted dose curve; in most records, active means well fitted inhibition curve with a large enough effect; inconclusive means small, poorly fitted or top-dose-only effect, or another doubt; inactive means no such curve, though single readings can be large or run the other way. Potencies beside an inconclusive call are fits to weak or partial responses and may not hold up.

What follows are compounds tested against DNA polymerase beta (Homo sapiens) (UniProt P06746) (assay: qHTS Assay for Inhibitors of DNA Polymerase Beta). Details: Pol beta primer extension/strand displacement, fluorescence kinetic; activity change, negative = inhibition: at 114 µM (top of the series).
How it was run: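 Reaction started by 50 nM substrate onto compound-treated Pol beta (10 nM, 15 min preincubation, room temperature); plates read at 0 min and 10 min. Normalized concentration-effect data fitted by four-parameter Hill equation.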
On the % scale 0 is the no-effect control and ±100 the full control effect; potency means the concentration at half of the fitted maximal effect.

| SMILES | Potency | activity change, negative = inhibition |
| --- | --- | --- |
| CN1/C(=C\C=C\C2=[N+](C)c3ccc4ccccc4c3C2(C)C)C(C)(C)c2ccccc21 | active: 79.4 µM | – |
| CC(N)[C@H](O)c1ccc(O)c(O)c1 (some centres undefined) | active: 1.78 µM | – |
| COc1ccc(OC)c(NP(=O)(Oc2ccc(Cl)cc2)Oc2ccc(Cl)cc2)c1 | inconclusive: 0.282 µM [inhibitor, full curve, poor fit] | – |
| Nc1nc(N)c2nc(CNc3ccc(C(=O)NC(CCC(=O)O)C(=O)O)cc3)cnc2n1 (centres undefined) | inconclusive: 35.5 µM [inhibitor, single point] | – |
| CC(C)(C)n1cccc1/C=C1\C(=O)NC(=O)N(c2ccccc2)C1=O | – | inactive: -9.85% |
| O=C(O)c1cccc2c1NC(c1cccc([N+](=O)[O-])c1)C1CC(Sc3ccccc3[N+](=O)[O-])C(Cl)C21 (centres undefined) | inconclusive: 89.1 µM [inhibitor, single point] | – |
| N#Cc1c(/N=C/c2c(O)n(Cc3ccco3)c(=O)[nH]c2=O)sc2c1CCCC2 | active: 31.6 µM | – |
| COP(=O)(OC)/C(C=O)=N/Nc1ccc([N+](=O)[O-])cc1 | active: 22.4 µM | – |
| CCCCCCC(=O)N/N=C/c1c(O)n(C(C)CC)c(=S)[nH]c1=O (centres undefined) | inconclusive: 89.1 µM [inhibitor, single point] | – |
| COc1ccc(CN2C(=O)NC(=O)/C(=C\c3ccc(OC)c(OC)c3OC)C2=O)cc1 | – | inactive: -16% |
| CCCCn1c(NS(=O)(=O)c2ccc(C)cc2)c(C(=O)OCC)c2nc3ccccc3nc21 | – | inactive: 9.77% |
| CC(C)[N+](C)(C)CC(O)CN(c1ccccc1)c1ccccc1 (centres undefined) | inconclusive: 89.1 µM [inhibitor, single point] | – |
| COc1ccc2[nH]cc(CCN)c2c1 | inactive | – |
| COc1ccc2nc3oc(C(=O)N4CCC5(CC4)OCCO5)cc3cc2c1 | inconclusive: 39.8 µM [inhibitor, partial curve] | – |
| O=c1c2ccccc2nc(/C=C/c2ccccc2O)n1-c1ccccc1O | inconclusive: 22.4 µM [inhibitor, full curve] | – |
| CN(C)[C@@H]1C(=O)C(C(N)=O)=C(O)[C@@]2(O)C(=O)C3=C(O)c4c(O)ccc(Cl)c4[C@@](C)(O)C3C[C@@H]12 (some centres undefined) | inconclusive: 4.47 µM [inhibitor, full curve, poor fit] | – |
| O=C(O)Cn1cc(/C=C2\C(=O)NC(=O)N(c3ccc(Cl)cc3)C2=O)c2ccccc21 | – | inactive: 1.54% |
| CCCCN1C(=O)/C(=C/c2ccc(N(C)C)cc2)C(=O)N(Cc2ccco2)C1=O | active: 22.4 µM | – |
| Cc1cc(/C=C2/C(=O)NC(=O)N(Cc3ccco3)C2=O)c(C)n1-c1ccccc1 | active: 17.8 µM | – |
| O=C1NC(=O)N(c2cccc(F)c2)C(=O)/C1=C/c1ccc(N2CCOCC2)cc1 | inconclusive: 22.4 µM [inhibitor, partial curve, poor fit] | – |
| COC(=O)c1ccc2ccn(CC(=O)NC(C)C)c2c1 | inconclusive: 8.91 µM [inhibitor, full curve, poor fit] | – |
| CCOC(=O)c1c(NC(=O)C(c2ccccc2)c2ccccc2)sc2c1C1CCN2CC1 | inconclusive: 0.112 µM [inhibitor, full curve, poor fit] | – |

Compounds listed so far with four or more nitrogen atoms (4):

| SMILES | Potency | activity change, negative = inhibition |
| --- | --- | --- |
| Nc1nc(N)c2nc(CNc3ccc(C(=O)NC(CCC(=O)O)C(=O)O)cc3)cnc2n1 (centres undefined) | inconclusive: 35.5 µM [inhibitor, single point] | – |
| N#Cc1c(/N=C/c2c(O)n(Cc3ccco3)c(=O)[nH]c2=O)sc2c1CCCC2 | active: 31.6 µM | – |
| CCCCCCC(=O)N/N=C/c1c(O)n(C(C)CC)c(=S)[nH]c1=O (centres undefined) | inconclusive: 89.1 µM [inhibitor, single point] | – |
| CCCCn1c(NS(=O)(=O)c2ccc(C)cc2)c(C(=O)OCC)c2nc3ccccc3nc21 | – | inactive: 9.77% |

Next records follow:

| SMILES | Potency | activity change, negative = inhibition |
| --- | --- | --- |
| O=C(CNC(=O)c1ccc(Br)cc1)Nc1ccc(Br)cc1C(=O)c1ccccc1 | inconclusive: 89.1 µM [inhibitor, single point] | – |
| C=C1C(=O)O[C@@H]2C[C@@H](C)[C@@H]3C=CC(=O)[C@@]3(C)[C@@H](O)[C@H]12 | inconclusive: 100 µM [inhibitor, single point] | – |
| COc1ccc(C(=O)Nc2ccc(-c3cc(C(F)(F)F)nn3-c3ccccc3)cc2)cc1OC | inconclusive: 89.1 µM [inhibitor, single point] | – |
| COc1ccc(P2(=O)Nc3ccccc3N2)cc1 | active: 39.8 µM | – |
| CCN(CC)C(=O)c1ccc(NC(=O)CCn2nc(-c3ccc(Cl)cc3)c3ccccc3c2=O)cc1 | inconclusive: 79.4 µM [inhibitor, single point] | – |
| O=C1NC(=S)N(C2CC2)C(=O)/C1=C/c1ccc2c(c1)CCN2CCCCl | active: 20 µM | – |
| Nc1c(C(=O)NCCN2CCOCC2)c2nc3ccccc3nc2n1Cc1ccco1 | inconclusive: 17.8 µM [inhibitor, full curve] | – |
| CN(C)c1ccc(/C=C2\CC3C4CC=C5CC(O)CCC5(C)C4CCC3(C)C2=O)cc1 (centres undefined) | – | inactive: 15.5% |
| O=c1[nH]c(=O)n(-c2ccc(F)cc2)c(O)c1C=Nc1ccccc1N1CCCC1 | inconclusive: 89.1 µM [inhibitor, single point] | – |
| CCOC(=O)C1CCN(/C=C2/C(=O)NC(=O)N(Cc3ccco3)C2=O)CC1 | active: 22.4 µM | – |
| CN1C(=O)NC(=O)/C(=C/c2ccc([N+](=O)[O-])s2)C1=O | – | inconclusive: -104% [inhibitor] |
| O=c1[nH]c(O)c(C=Nc2ccccc2Oc2ccccc2)c(=O)[nH]1 | inconclusive: 10 µM [inhibitor, full curve] | – |
| CSc1ncc(/C=C2/C(=O)NC(=O)N(c3ccc(C)cc3)C2=O)cn1 | inconclusive: 89.1 µM [inhibitor, single point] | – |
| O=C(O)Cn1cc(/C=C2\C(=O)NC(=O)N(c3ccc(F)cc3)C2=O)c2ccccc21 | inconclusive: 63.1 µM [inhibitor, single point] | – |
| O=C(N=Nc1c(O)[nH]c(=O)[nH]c1=O)C1COc2cc3ccccc3cc2O1 (centres undefined) | inconclusive: 31.6 µM [inhibitor, single point] | – |
| CCN(CC)S(=O)(=O)c1cc(NC(=O)C(C)N2CC=C(c3ccccc3)CC2)ccc1C (centres undefined) | inconclusive: 79.4 µM [inhibitor, single point] | – |
| CN(C)C(=O)Oc1ccc2c(c1)O/C(=C\c1ccc(Cl)cc1)C2=O | inconclusive: 39.8 µM [inhibitor, single point] | – |
| O=C(Nc1cccc(C(F)(F)F)c1)c1cccn(Cc2ccc3c(c2)OC(F)(F)O3)c1=O | inconclusive: 10 µM [inhibitor, full curve, poor fit] | – |
| CCN(c1ccccc1)S(=O)(=O)c1ccc(NC(=O)c2cc(=O)c3ccccc3o2)cc1 | inconclusive: 39.8 µM [inhibitor, single point] | – |
| Cc1cc(OCC(=O)OC(C)(C)C)c2c3c(c(=O)oc2c1)CCC3 | inconclusive: 89.1 µM [inhibitor, single point] | – |
| Cc1ccc(C(C)C)c(OCCn2c(=O)oc3ccccc32)c1 | inconclusive: 3.55 µM [inhibitor, full curve, poor fit] | – |

| SMILES | Potency | activity change, negative = inhibition |
| --- | --- | --- |
| CC(C)(C)c1ccc(O)c(N=Cc2c(O)ccc3ccccc23)c1 | inconclusive: 50.1 µM [inhibitor, single point] | – |
| CC1=C(C(=O)O)N2C(=O)[C@@H](NC(=O)CCCC(=O)O)[C@H]2SC1 | – | inactive: 35.4% |
| Cc1cc(C)cc(Oc2nc3ccccn3c(=O)c2/C=C(\C#N)c2nc3ccccc3s2)c1 | inconclusive: 39.8 µM [inhibitor, single point] | – |
| NCCCC(=O)OC1N=C(c2ccccc2Cl)c2cc(Br)ccc2NC1=O (centres undefined) | inconclusive: 39.8 µM [inhibitor, full curve, poor fit] | – |
| O=c1c2ccccc2ncn1-c1ccc([N+](=O)[O-])c(C(F)(F)F)c1 | inconclusive: 89.1 µM [inhibitor, single point] | – |
| CC/C(CC(c1ccccc1)c1c(O)c2ccccc2oc1=O)=N\NC(N)=S (centres undefined) | inconclusive: 79.4 µM [inhibitor, single point] | – |
| CCOc1ccc(N2C(=O)NC(=O)/C(=C\c3ccccc3[N+](=O)[O-])C2=O)cc1 | – | inactive: -10.5% |
| O=C(CN1CCCC1)Nc1ccc(Cl)cc1C(=O)c1ccccc1 | inconclusive: 100 µM [inhibitor, single point] | – |
| COCCCN1CCN(c2nnc3n2-c2sc(Br)cc2C(c2ccccc2Cl)=NC3)CC1 | – | inactive: 16.6% |
| O=P(O)(O)/C=C(\Cl)c1ccccc1 | – | inactive: -28.9% |
| C=C(COC(C)=O)CC1CC(O)[C@]2(C)OC3CC4OC5C[C@]6(C)O[C@]7(C)CCC8OC9C[C@]%10(C)OC%11C(C)=CC(=O)OC%11CC%10OC9C[C@@H](C)C8OC7CC6O[C@]5(C)C/C=C\C4OC3CC2O1 (some centres undefined) | inconclusive: 100 µM [inhibitor, single point] | – |
| O=c1[nH]c(=O)n(Cc2ccccc2)c(O)c1C=NCCCO | inconclusive: 79.4 µM [inhibitor, single point] | – |
| O=C1NC(=O)N(c2ccc(Cl)cc2)C(=O)/C1=C\c1ccc(Sc2nc3ccccc3[nH]2)o1 | active: 22.4 µM | – |
| N#CC(C#N)=C(N)c1cccnc1 | inconclusive: 35.5 µM [inhibitor, partial curve, poor fit] | – |
| CN(C)[C@@H]1C(=O)C(C(N)=O)=C(O)[C@@]2(O)C(=O)C3=C(O)c4c(O)ccc(Cl)c4[C@@](C)(O)[C@H]3C[C@@H]12 | – | inactive: 0.604% |
| O=C1NC(=O)C(=Cc2ccc(-c3cc(Cl)ccc3[N+](=O)[O-])o2)C(=O)N1 | inconclusive: 79.4 µM [inhibitor, partial curve] | – |
| CCCCCn1c(=O)c(C(=O)Nc2ccccc2S(N)(=O)=O)c(O)c2ccccc21 | – | inactive: -17.7% |
| CC(C)CCn1c(N)c(C(=O)NCc2cccs2)c2nc3ccccc3nc21 | inconclusive: 31.6 µM [inhibitor, full curve] | – |
| Clc1ccc(CSC(Cn2ccnc2)c2ccc(Cl)cc2Cl)cc1 (centres undefined) | inconclusive: 20 µM [inhibitor, partial curve, poor fit] | – |
| Cc1c(C(=O)O)cccc1-n1c(C)cc(/C=C2\C(=O)NC(=O)N(c3ccc4c(c3)OCO4)C2=O)c1C | active: 11.2 µM | – |
